Results on 1 molecule are retold here after article PMC6620288.

The chains behind the UniProt entries cited, without tags or fusion partners.
UniProt Q9NNX6: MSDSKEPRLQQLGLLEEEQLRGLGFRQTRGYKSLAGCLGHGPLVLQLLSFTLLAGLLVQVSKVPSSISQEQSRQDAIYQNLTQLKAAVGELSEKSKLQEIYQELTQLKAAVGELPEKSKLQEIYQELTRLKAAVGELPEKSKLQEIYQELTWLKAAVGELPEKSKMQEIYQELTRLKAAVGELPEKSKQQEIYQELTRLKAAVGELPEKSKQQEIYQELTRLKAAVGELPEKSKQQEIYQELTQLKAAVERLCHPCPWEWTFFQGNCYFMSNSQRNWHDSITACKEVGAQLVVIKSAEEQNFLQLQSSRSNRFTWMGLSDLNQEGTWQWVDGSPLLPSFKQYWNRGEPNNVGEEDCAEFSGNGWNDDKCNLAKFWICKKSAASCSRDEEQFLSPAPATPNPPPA

The target of the assay is human DC-SIGN (human) (UniProt Q9NNX6). Nature of the assay: flow cytometry on cells; soluble ligand or IgG1 glycoform (10 μg/ml) on transfected HEK Freestyle cells, 37 °C, one hour; 20 mM HEPES, 1 mM CaCl2, 1 mM MgCl2, 1% BSA, pH 7.4; detection by label or labelled secondary reagent; only the binder purified.

No constants are given. Whether binding was seen depends on the method and setting. Some results given as binding are weak or reduced against the parent protein; the word gives no strength. Tags and fused reporters may be left off the sequences shown.

B1: recombinant His-tagged human ICAM-3 (ligand, UniProt P32942 30-485)
chain: QEFLLRVEPQNPVLSAGGSLFVNCSTDCPSSEKIALETSLSKELVASGMGWAAFNLSNVTGNSRILCSVYCNGSQITGSSNITVYRLPERVELAPLPPWQPVGQNFTLRCQVEDGSPRTSLTVVLLRWEEELSRQPAVEEPAEVTATVLASRDDHGAPFSCRTELDMQPQGLGLFVNTSAPRQLRTFVLPVTPPRLVAPRFLEVETSWPVDCTLDGLFPASEAQVYLALGDQMLNATVMNHGDTLTATATATARADQEGAREIVCNVTLGGERREARENLTVFSFLGPIVNLSEPTAHEGSTVTVSCMAGARVQVTLDGVPAAAPGQPAQLQLNATESDDGRSFFCSATLEVDGEFLHRNSSVQLRVLYGPKIDRATCPQHLKWKDKTRHVLQCQARGNPYPELRCLKEGSSREVPVGIPFFVNVTHNGTYQCQASSSRGKYTLVVVMDIEAGSSH
Turning to B1, the binding result is reported as “binds”.
